Consider five compounds from patent publication US20090253709A1 (NATIONAL DEFENSE MEDICAL CENTER, priority 2008, published 2009).

The data set concerns different cancer cell lines. The data set is described as follows: In vitro cytotoxicity, Development Therapeutics Program, summary over all cell lines. The data set is classed as cell-based. Particulars: 1.0×10^−5 M. The source says: From the in vitro experiments of the Development Therapeutics Program of the Cancer Research Institute, the United States, it was known that the synthetic heterocyclic anthraquinone derivatives of the present invention have different inhibition levels to the different cancer cell lines under the concentration of 1.0×10^−5 M. Please refer to Table 2, which is the result of in vitro cytotoxicity of 2,7-disubstituted anthraquinone derivatives of the present invention.

As for `CN(C)CC(=O)Nc1ccc2c(c1)C(=O)c1cc(NC(=O)CN(C)C)ccc1C2=O` [Compound 8, 2,7-Bis[2-(dimethylamino)acetamido]anthraquinone], the “Cellular growth rate (%), Delta Value” was determined as 112.21% and the “Cellular growth rate (%), Range” value was found to be 185.81%.

Take `CC(=O)Nc1ccc2c(c1)C(=O)c1cc(NC(C)=O)ccc1C2=O` [Compound 26, 2,7-Bis(acetamido)anthraquinone]: the “Cellular growth rate (%), Delta Value” is recorded as 95.45% and the “Cellular growth rate (%), Range” value amounted to 129.44%.

Consider `CCN(CC)CCC(=O)Nc1ccc2c(c1)C(=O)c1cc(NC(=O)CCN(CC)CC)ccc1C2=O` [Compound 16, 2,7-Bis[3-(diethylamino)propionamido]anthraquinone], for which the “Cellular growth rate (%), Delta Value” is 103.75% and the “Cellular growth rate (%), Range” value is recorded as 170.17%.

On to `O=C1c2ccc(NC(=O)C3CC3)cc2C(=O)c2cc(NC(=O)C3CC3)ccc21` [Compound 32, 2,7-Bis(cyclopropanecarbonamido)anthraquinone], for which the “Cellular growth rate (%), Delta Value” is recorded as 89.85% and the “Cellular growth rate (%), Range” value was 134.51%.

As to `O=C(CCN1CCCC1)Nc1ccc2c(c1)C(=O)c1cc(NC(=O)CCN3CCCC3)ccc1C2=O` [Compound 18, 2,7-Bis[3-(pyrrolidino)propionamido]anthraquinone], the “Cellular growth rate (%), Delta Value” is 76.18% and the “Cellular growth rate (%), Range” value was 131.05%.
